No constants are given. Whether binding was seen depends on the method and setting. Some binding calls cover weakened binding; strength is not graded here.
Target: endothelial nitric oxide synthase (eNOS) (mouse (endogenous in mesenteric arteries)) (UniProt P70313)
Assay: low-temperature SDS-PAGE (LT-PAGE) with western blot; extracts of mesenteric arteries from wild-type and Mthfr+/- mice; SDS-resistant eNOS dimer and monomer detected by blot; vessels treated ex vivo (RSV 25 uM 1 h, ISIDE11) or mice treated in vivo for 21 days (RSV, ISIDE11, with or without EX527)

binding: binds
B1: endothelial nitric oxide synthase (eNOS) (enzyme, UniProt P70313 1-1202)
chain: MGNLKSVGQEPGPPCGLGLGLGLGLCGKQGPASPAPEPSQAPAPPSPTRPAPDHSPPLTRPPDGPRFPRVKNWEVGSITYDTLSAQAQQDGPCTSRRCLGSLVFPRKLQSRPTQGPSPTEQLLGQARDFINQYYNSIKRSGSQAHEQRLQEVEAEVAATGTYQLRESELVFGAKQAWRNAPRCVGRIQWGKLQVFDARDCRTAQEMFTYICNHIKYATNRGNLRSAITVFPQRCPGRGDFRIWNSQLIRYAGYRQQDGSVRGDPANVEITELCIQHGWTPGNGRFDVLPLLLQAPDEPPELFTLPPEMVLEVPLEHPTLEWFAALGLRWYALPAVSNMLLEIGGLEFPAAPFSGWYMSSEIGMRDLCDPHRYNILEDVAVCMDLDTRTTSSLWKDKAAVEINVAVLHSYQLAKVTIVDHHAATASFMKHLENEQKARGGCPADWAWIVPPISGSLTPVFHQEMVNYFLSPAFRYQPDPWKGSAAKGAGITRKKTFKEVANAVKISASLMGTVMAKRVKATILYGSETGRAQSYAQQLGRLFRKAFDPRVLCMDEYDVVSLEHEALVLVVTSTFGNGDPPENGESFAAALMEMSGPYNSSPRPEQHKSYKIRFNSVSCSDPLVSSWRRKRKESSNTDSAGALGTLRFCVFGLGSRAYPHFCAFARAVDTRLEELGGERLLQLGQGDELCGQEEAFRGWAQAAFQAACETFCVGEDAKAAARDIFSPKRSWKRQRYRLSTQAESLQLLPGLTHVHRRKMFQATILSVENLQSSKSTRATILVRLDTGGQEGLQYQPGDHIGVCPPNRPGLVEALLSRVEDPPPSTEPVAVEQLEKGSPGGPPPGWVRDPRLPPCTLRQALTYFLDITSPPSPRLLRLLSTLAEESSEQQELEALSQDPRRYEEWKWFSCPTLLEVLEQFPSVALPAPLILTQLPLLQPRYYSVSSAPSAHPGEIHLTIAVLAYRTQDGLGPLHYGVCSTWMSQLKAGDPVPCFIRGAPSFRLPPDPNLPCILVGPGTGIAPFRGFWQDRLHDIEIKGLQPAPMTLVFGCRCSQLDHLYRDEVLDAQQRGVFGQVLTAFSRDPGSPKTYVQDLLRTELAAEVHRVLCLEQGHMFVCGDVTMATSVLQTVQRILATEGGMELDEAGDVIGVLRDQQRYHEDIFGLTLRTQEVTSRIRTQSFSLQERQLRGAVPWSFDPPGPEIPGS

Reference: PMC9276577, “SIRT1 pharmacological activation rescues vascular dysfunction and prevents thrombosis in MTHFR deficiency” (Cellular and Molecular Life Sciences: CMLS, 2022)
